Four compounds from patent US7005537B2, “Production of esters” (ExxonMobil Chemical Patents Inc., priority 1999, dated 2006) can be followed below.

Several values for one entry are separate records, joined by “and”; a condition that tells them apart may be missing. Identical values can stand only once.

The data set in a line: Absolute Maximum Incremental Reactivity (MIR), grams ozone formed per gram of compound.
Where [1] appears, read: esters of the invention, determined values.

For the compound `CC` [Ethane], the “Ozone Yield Absolute Reactivities” value is on record as 0.172 (EBIR scenario), 0.354 (MIR scenario) and 0.226 (MOIR scenario).
`COC(=O)C(C)(C)C` [Methyl Pivalate, methyl pivalate (methyl 1,1,1-trimethyl acetate)]: the “absolute MIR” value is 0.236 (Actual measured value) gram ozone produced/gram fluid (Actual measured value); 0.236 and 0.24 under setting [1]. The “Ozone Yield Absolute Reactivities” value was 0.098 (EBIR scenario), 0.236 (MIR scenario) and 0.155 (MOIR scenario).
Consider `CC(C)=O` [Acetone], for which the “Ozone Yield Absolute Reactivities” value was 0.123 (EBIR scenario), 0.472 (MIR scenario) and 0.197 (MOIR scenario).
With `COC(=O)C(C)C` [methyl isobutyrate], the “absolute MIR” value under setting [1] was determined as 0.42.
